Results published in patent US5167824A, “Separation by carrier mediated transport” (priority 1990, dated 1992).

Legend:
FB-sFv 26-10 = test: Oleandrin facilitated transport through supported liquid membrane containing FB-sFv 26-10; set-up: species or system murine; conditions: for oleandrin concentration (lumen reservoir): 6.0 mgs binding protein
Description: (§1) A hollow fiber device was constructed using 100×17.8 cm PAN fibers, produced by Sepracor, Inc., Marlborough, Mass. Each PAN fiber is a tubular membrane having a wall thickness of 50 μm and an internal diameter of 205 μm. Thus, this device contains a geometric surface area of 115 cm^2 of PAN fiber. The associated fluid handling equipment comprised two peristaltic pumps, one for the shell loop and one for the luman loop, a pressure gauge on the shell loop for determining the pressure drop from the shell side to the lumen side, and a throttling valve for creating a positive pressure on the shell side.
The fluid loops were then drained. 100 mls of buffer containing 10.0 mgs of FB-sFv 26-10 produced as disclosed above were then slowly ultrafiltered from the shell loop at a pressure of 10 psi. […] After this time, no bulk fluid, either aqueous or organic, was present in either loop. […] Since an optical density of 1.0 at 280 nm indicates a protein concentration of 1.0 mg/ml, the filtrate contained 4.0 mgs protein. 6.0 mgs of FB-sFv 26-10 were therefore assumed to be contained in the supported liquid membrane.
Octanol saturated with buffer, but not containing oleandrin, was then convected through each loop, with the 10 psi pressure differential across the supported liquid membrane. Once uninterrupted convection through each loop was established, the shell loop reservoir was replaced with a reservoir containing 500 mls of octanol saturated with buffer, and containing 2.0 mg/ml oleandrin. The lumen reservoir was replaced with a reservoir containing 50 mls of buffer saturated octanol, containing no oleandrin. Over a 24 hour period, no convective flow of octanol through the supported liquid membrane occurred.
During this period, successive 1 ml samples of the lumen reservoir were taken. In order not to disturb the volume of the lumen reservoir, the octanol taken in each sample was replaced with 1 ml of buffer saturated octanol after drawing each sample. The quantity of oleandrin contained in each lumen reservoir sample was determined by HPLC.

[1] = Oleandrin transport through supported liquid membrane without binding protein; conditions: no binding protein
Description: as §1
The device was first washed with 1 L of water. This washing involved convecting water through the lumen, through the shell, and through the PAN fibers from shell-side to lumen.
Following the washing procedure, the liquid membrane was put in place. A buffer solution of the same composition as that in which the FB-sFv protein was dissolved (50 mM sodium chloride) was pumped through the fibers, from the shell-side to the lumen. Approximately 100 mls of buffer solution were convected through the fibers. Both the lumen and shell were then drained of bulk aqueous solution, and 1-octanol previously saturated with the same buffer solution was introduced into both the shell and lumen fluid loops. After establishing uninterrupted convection of 1-octanol through these loops, the throttling valve was closed until a shell-to-lumen pressure drop of 10 psi was created across the fibers. The octanol in both the shell and lumen loops were fed from separate reservoirs, both containing 100 mls of 1-octanol previously saturated with the same buffer used as the supported liquid membrane.
Oleandrin is a cardiac glycoside having a molecular weight of 576, and an organic to aqueous partition coefficient between 1-octanol and water of 338 (Cohnen et al, Drug Res. 28 (II), Heft 12, 1978). This translates to an aqueous to organic coeffient S of about 0.003. The glycoside was dissolved to a final concentration of 2.0 mgs/ml (3.5 mM) in 500 mls of 1-octanol previously saturated with buffer. This reservoir was then placed in the shell fluid loop. A reservoir containing 50 ml of buffer saturated 1-octanol, containing no oleandrin, was placed in the lumen fluid loop, and circulation of these reservoirs through their respective fluid loops commenced. The pressure differential of 10 psi was maintained across the supported liquid membrane. The volumes of the reservoirs were noted, and again observed not to change over a 20 hour period. During this period, successive 1 ml samples of the lumen reservoir were taken. […] The quantity of oleandrin contained in each lumen reservoir sample was determined by HPLC.

CO[C@H]1C[C@H](O[C@H]2CC[C@@]3(C)[C@H](CC[C@@H]4[C@@H]3CC[C@]3(C)[C@@H](C5=CC(=O)OC5)[C@@H](OC(C)=O)C[C@]43O)C2)O[C@@H](C)[C@@H]1O [Oleandrin, oleandrin]
oleandrin concentration (lumen reservoir) (FB-sFv 26-10; 0 hrs): 0 mg/mL
oleandrin concentration (lumen reservoir) (FB-sFv 26-10; 0.5 hrs): 0.016 mg/mL
oleandrin concentration (lumen reservoir) (FB-sFv 26-10; 1.0 hrs): 0.025 mg/mL
oleandrin concentration (lumen reservoir) (FB-sFv 26-10; 2.0 hrs): 0.047 mg/mL
oleandrin concentration (lumen reservoir) (FB-sFv 26-10; 3.0 hrs): 0.067 mg/mL
oleandrin concentration (lumen reservoir) (FB-sFv 26-10; 4.0 hrs): 0.090 mg/mL
oleandrin concentration (lumen reservoir) (FB-sFv 26-10; 6.0 hrs): 0.119 mg/mL
oleandrin concentration (lumen reservoir) (FB-sFv 26-10; 7.0 hrs): 0.134 mg/mL
oleandrin concentration (lumen reservoir) (FB-sFv 26-10; 7.5 hrs): 0.140 mg/mL
oleandrin concentration (lumen reservoir) (FB-sFv 26-10; 23.0 hrs): 0.335 mg/mL
oleandrin concentration (lumen reservoir) (FB-sFv 26-10; 24.0 hrs): 0.350 mg/mL
average facilitation factor (FB-sFv 26-10; 24-hour average): 4.5
initial facilitation factor (FB-sFv 26-10; initial): 8.3
oleandrin concentration (lumen reservoir) ([1]; 0 hrs): 0 mg/mL
oleandrin concentration (lumen reservoir) ([1]; 19.0 hrs): 0.05 mg/mL and 0.050 mg/mL
oleandrin concentration (lumen reservoir) ([1]; 20.0 hrs): 0.04 mg/mL and 0.040 mg/mL
detectable oleandrin in lumen reservoir ([1]; before 6 hours): did not demonstrate detectable quantities

Where “and” joins values, the source holds several entries; their conditions need not be identical. Equal values may be shown once.
